Test results as given in PubChem BioAssay AID504834 (National Center for Advancing Translational Sciences (NCATS), 2011).
The campaign covered roughly 320,000 compounds. About 22,000 (6.9%) were called active. The shares of active, inactive and inconclusive entries below differ from those in the screen. Calls follow the shape of the dose curve; as a rule, active = well fitted inhibition curve with a large enough effect; inconclusive = small, poorly fitted or top-dose-only effect, or another doubt; inactive = no such curve, though single readings can be large or run the other way. Potencies of inconclusive entries are doubtful fits and often do not repeat.

Assay: Primary qHTS for delayed death inhibitors of the malarial parasite plastid, 96 hour incubation
Conditions: P. falciparum luciferase reporter growth; series mostly up to 28.7 µM; activity change, negative = inhibition: at the top concentration
Outline: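 Plates of compound plus infected erythrocytes (2% hematocrit, 0.05% parasitemia final) incubate 96 hours, 37 C, 5% CO2. Detection reagent added; reduced luminescence from the parasites' luciferase reporter flags inhibition.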
% is scaled to controls: 0 for no effect and ±100 for the full control effect; potency is read from the fitted curve at half-maximal effect.

Row | SMILES | Potency | activity change, negative = inhibition
1 | CCN1Cc2c(/C=C/c3ccccc3)nc3ccc(OC)cc3c2N(c2cccc(Cl)c2)C1 | active: 3.29 µM | –
2 | CCC1(c2ccc(F)cc2)NC(=O)N(CC(=O)N2CCc3ccccc3C2)C1=O (stereo not given) | inconclusive: 3.29 µM [inhibitor, single point] | –
3 | COCCNC(=O)c1cccc(OC2CCN(Cc3ccc(C(C)C)cc3)CC2)c1 | – | inactive: -20.9%
4 | Cc1cc2n(c(=O)c1C#N)CCCN2c1ccccc1 | inconclusive: 0.131 µM [inhibitor, full curve] | –
5 | CCN1CCCC1CNC(=O)c1cc2c(OC)c(OC)c(OC)cc2[nH]1 (stereo not given) | inconclusive: 18.5 µM [inhibitor, single point] | –
6 | CCN1CCN(Cc2ccc(NC(=O)Nc3cccs3)cc2)CC1 | – | inactive: -25.1%
7 | CCOC(=O)c1cnc2ccc(C(=O)OC)cc2c1NCCCN1CCOCC1 | inconclusive: 11.7 µM [inhibitor, single point] | –
8 | COc1cccc(OC)c1C(=O)N1CCNCC1 | inconclusive: 10.4 µM [inhibitor, single point] | –
9 | O=C(NC(=S)N(Cc1ccccc1)c1ccccn1)C1CCCCC1 | – | inactive: -4.15%
10 | CC(C)c1ccc(/C=C2\SC(N3CCOCC3)=NC2=O)cc1 | inconclusive: 2.62 µM [inhibitor, full curve] | –
11 | O=C(NCc1ccccc1F)C1CCN(C(=O)c2sccc2-n2cccc2)CC1 | inconclusive: 0.0033 µM [inhibitor, full curve, poor fit] | –
12 | Cc1cc(N2CCCC2)nc2ccc(NC(=S)NCCCOC(C)C)cc12 | inconclusive: 2.62 µM [inhibitor, single point] | –
13 | COC(=O)C1Cc2ccccc2CN1S(=O)(=O)c1ccc(F)cc1 (stereo not given) | active: 1.31 µM | –
14 | C/C(=N\NC(=O)c1ccccc1O)c1ccc(NC(=O)c2ccccc2)cc1 | – | inactive: -14.8%
15 | Cc1ccc(C2(C)NC(=O)N(CC(=O)Nc3ccccc3N3CCCCC3)C2=O)cc1 (stereo not given) | inconclusive: 18.5 µM [inhibitor, single point] | –
16 | COCCCN1C(=O)C(=O)/C(=C(/O)c2ccc(S(=O)(=O)N3CCOCC3)cc2)C1c1ccc(Cl)cc1 (stereo not given) | inconclusive: 10.4 µM [inhibitor, single point] | –
17 | CCc1ccc(/C=C/c2c[nH]c3ccccc23)[n+](CC)c1 | active: 0.0738 µM | –
18 | COc1cc2c(cc1OC)CN(Cc1cc(=O)oc3c(C)c(C)ccc13)CC2 | active: 13.1 µM | –
19 | COc1ccc(Cc2nnc(NC(=O)c3ccco3)s2)cc1 | – | inactive: 34.9%
20 | Cc1ccc(N(C(=O)c2cc3ccccc3oc2=O)C2C=CS(=O)(=O)C2)cc1 (stereo not given) | inconclusive: 18.5 µM [inhibitor, single point] | –

2 entries drawn at random from the list so far, as already listed:
Row | SMILES | Potency | activity change, negative = inhibition
11 | O=C(NCc1ccccc1F)C1CCN(C(=O)c2sccc2-n2cccc2)CC1 | inconclusive: 0.0033 µM [inhibitor, full curve, poor fit] | –
16 | COCCCN1C(=O)C(=O)/C(=C(/O)c2ccc(S(=O)(=O)N3CCOCC3)cc2)C1c1ccc(Cl)cc1 (stereo not given) | inconclusive: 10.4 µM [inhibitor, single point] | –
